The record followed here is PubChem BioAssay AID248 (DTP/NCI, 2004).

The list does not hold the whole screen: it gathers tests that were run many times, whatever their T/C, doses with no T/C, and many T/C values between a quarter and a half above the control. Further doses and runs are listed elsewhere. T/C: endpoint of the treated group in % of that of the vehicle group. Some doses have a count of surviving animals in place of a T/C: the source holds a T/C of zero for them, seemingly a mark for toxic or unscored doses. Some doses without a T/C left all or most animals alive at the check, yet need not have been tolerated: the source hardly ever lists a survival T/C far under the control, and the zero likely stands for such cases as well. Survivors were counted at the toxicity check, usually on the fifth day, unless a day is given; later deaths do not show. Schedules are NCI's codes, taken here to give the interval after Q, in days (D) or hours (H), and the number of doses after X. Some schedules carry Z or #; the key to these is not given. For survival time, the PubChem record calls one and a half times the control and up active, and a quarter to a half above the control has no call in these data; cut-offs in other NCI protocols can differ. Some entries hold several experiments; the results are listed from low to high.

In this test the test system is L1210 leukemia ip in BDF1 mice, survival T/C. The experiment in a line: NCI In Vivo Anticancer Drug Screen. Data for tumor model L1210 Leukemia (intraperitoneal) in B6D2F1 (BDF1) mice. Conditions: higher T/C = longer survival.
The mark [1] stands for this setting: T/C endpoint: mean survival time, dose: 200.0 mg/kg/injection, schedule: Q01DX001 (ip), vehicle: other.
Where [2] appears, read: T/C endpoint: mean survival time, dose: 400.0 mg/kg/injection, schedule: Q01DX001 (ip), vehicle: other.
The mark [3] stands for this setting: T/C endpoint: mean survival time, dose: 100.0 mg/kg/injection, schedule: Q04DX002 (ip), vehicle: saline.
Setting [4] is: T/C endpoint: mean survival time, dose: 200.0 mg/kg/injection, schedule: Q04DX002 (ip), vehicle: saline.
Where [5] appears, read: T/C endpoint: mean survival time, dose: 400.0 mg/kg/injection, schedule: Q04DX002 (ip), vehicle: saline.
Where [6] appears, read: T/C endpoint: mean survival time, dose: 100.0 mg/kg/injection, schedule: Q01DX009 (ip), vehicle: Klucel (hydroxypropylcellulose) (HPC).
[7] abbreviates: T/C endpoint: mean survival time, dose: 200.0 mg/kg/injection, schedule: Q01DX009 (ip), vehicle: Klucel (hydroxypropylcellulose) (HPC).
[8] abbreviates: T/C endpoint: mean survival time, dose: 400.0 mg/kg/injection, schedule: Q01DX009 (ip), vehicle: Klucel (hydroxypropylcellulose) (HPC).
Setting [9] is: T/C endpoint: mean survival time, dose: 400.0 mg/kg/injection, schedule: Q01DX009 (ip), vehicle: other.
The mark [10] stands for this setting: T/C endpoint: mean survival time, dose: 400.0 mg/kg/injection, schedule: Q04DX003 (ip), vehicle: Klucel (hydroxypropylcellulose) (HPC).

Regarding `CCCN(C)/N=N/c1nc[nH]c1C(N)=O`, the T/C is 126 % of control (T/C endpoint: mean survival time, dose: 33.5 mg/kg/injection, schedule: Q01DX009 (ip), vehicle: carboxymethylcellulose (CMC)); 128 % of control (T/C endpoint: mean survival time, dose: 50.0 mg/kg/injection, schedule: Q01DX009 (ip), vehicle: carboxymethylcellulose (CMC)); 135 % of control (T/C endpoint: mean survival time, dose: 75.0 mg/kg/injection, schedule: Q01DX Z (ip), vehicle: carboxymethylcellulose (CMC)); 143 % of control (T/C endpoint: mean survival time, dose: 200.0 mg/kg/injection, schedule: Q01DX001 (ip), vehicle: carboxymethylcellulose (CMC)); 133 % of control (T/C endpoint: median survival time, dose: 25.0 mg/kg/injection, schedule: Q01DX009 (ip), vehicle: steroid suspending solution, evaluated on day 40); 138 % of control (T/C endpoint: median survival time, dose: 25.0 mg/kg/injection, schedule: Q01DX009 (ip), vehicle: steroid suspending solution, evaluated on day 50). Besides, the T/C was 133 % of control (T/C endpoint: median survival time, dose: 50.0 mg/kg/injection, schedule: Q01DX009 (ip), vehicle: steroid suspending solution) and 144 % of control (T/C endpoint: median survival time, dose: 100.0 mg/kg/injection, schedule: Q01DX009 (ip), vehicle: steroid suspending solution). Besides, under “T/C endpoint: mean survival time, dose: 200.0 mg/kg/injection, schedule: Q01DX009 (ip), vehicle: carboxymethylcellulose (CMC)”, the survivor count is recorded as 3 of 6.
In the case of `BrC1CCC2C(CCC(Br)C23OCCO3)C12OCCO2` (stereo not drawn), where the note is “T/C endpoint: mean survival time, dose: 200.0 mg/kg/injection, schedule: Q04DX003 (ip), vehicle: saline”, the survivor count is on record as 6 of 6.
Take `CNS(=O)(=O)c1ccc(NC(=O)CI)cc1`: the survivor count is given as 3 of 6 (T/C endpoint: mean survival time, dose: 25.0 mg/kg/injection, schedule: Q04DX003 (ip), vehicle: other); 0 of 6 (T/C endpoint: mean survival time, dose: 50.0 mg/kg/injection, schedule: Q04DX003 (ip), vehicle: other); 2 of 6 (T/C endpoint: mean survival time, dose: 100.0 mg/kg/injection, schedule: Q01DX001 (ip), vehicle: other); 2 of 6 under setting [1]; 0 of 6 under setting [2].
With `O=[N+]([O-])c1cc(Cl)[n+]([O-])c(Cl)c1`, the survivor count (T/C endpoint: mean survival time, dose: 150.0 mg/kg/injection, schedule: Q01DX001 (ip), vehicle: carboxymethylcellulose (CMC)) is recorded as 0 of 6 and the survivor count (T/C endpoint: mean survival time, dose: 300.0 mg/kg/injection, schedule: Q01DX001 (ip), vehicle: carboxymethylcellulose (CMC)) is 1 of 6.
As for `C[n+]1ccccc1NC(=O)c1ccc(C(=O)Nc2cccc[n+]2C)cc1`, the survivor count is on record as 6 of 6 (T/C endpoint: mean survival time, dose: 15.0 mg/kg/injection, schedule: Q01DX Z (ip), vehicle: saline) and 6 of 6 (T/C endpoint: mean survival time, dose: 60.0 mg/kg/injection, schedule: Q01DX Z (ip), vehicle: saline).
Take `NCCCN1CCN(CCCN)CC1`: the T/C under setting [3] is recorded as 96, 98, 101 % of control; the T/C under setting [4] is given as 91, 92, 98, 108 % of control; the T/C under setting [5] was 92, 100, 107 % of control. Besides, the survivor count is, setting by setting: under setting [3], 3 of 3; under setting [5], 3 of 3.
As for `CC(C)=CCN(CC=C(C)C)CCC(CC=C(C)C)(C(N)=O)c1cccc2ccccc12` (stereo not drawn), the survivor count was 3 of 6 under setting [6], 0 of 6 under setting [7] and 0 of 6 under setting [8].
For `O=C(Nc1cccc(C2=NCCN2)c1)c1cc(C(=O)Nc2cccc(C3=NCCN3)c2)cc(C(=O)Nc2cccc(C3=NCCN3)c2)c1`, the survivor count runs as follows: (T/C endpoint: mean survival time, dose: 50.0 mg/kg/injection, schedule: Q01DX Z (ip), vehicle: saline) 2 of 6; (T/C endpoint: mean survival time, dose: 75.0 mg/kg/injection, schedule: Q01DX Z (ip), vehicle: saline) 1 of 6.
Regarding `O=C(C=C(C(F)(F)F)C(F)(F)F)c1cc(Cl)ccc1Cl`, the survivor count is on record as 5 of 6 (T/C endpoint: mean survival time, dose: 50.0 mg/kg/injection, schedule: Q01DX009 (ip), vehicle: saline with Tween-80); 5 of 6 (T/C endpoint: mean survival time, dose: 100.0 mg/kg/injection, schedule: Q04DX003 (ip), vehicle: saline with Tween-80); 0 of 6 (T/C endpoint: mean survival time, dose: 200.0 mg/kg/injection, schedule: Q04DX003 (ip), vehicle: saline with Tween-80); 0 of 6 (T/C endpoint: mean survival time, dose: 400.0 mg/kg/injection, schedule: Q04DX003 (ip), vehicle: saline with Tween-80).
For `Cn1cnc([N+](=O)[O-])c1Sc1ncnc2c1ncn2C1OC(CO)C(O)C1O` (stereo not drawn), the T/C was 132 % of control (T/C endpoint: mean survival time, dose: 70.0 mg/kg/injection, schedule: Q01DX009 (ip), vehicle: saline); 146 % of control (T/C endpoint: mean survival time, dose: 135.0 mg/kg/injection, schedule: Q01DX009 (ip), vehicle: saline); 128 % of control (T/C endpoint: mean survival time, dose: 150.0 mg/kg/injection, schedule: Q04DX003 (ip), vehicle: Klucel (hydroxypropylcellulose) (HPC)); 147 % of control (T/C endpoint: mean survival time, dose: 268.0 mg/kg/injection, schedule: Q01DX009 (ip), vehicle: other); 141 % of control under setting [9]; 125 % of control (T/C endpoint: mean survival time, dose: 400.0 mg/kg/injection, schedule: Q01DX009 (ip), vehicle: saline). Also, for the setting “T/C endpoint: mean survival time, dose: 600.0 mg/kg/injection, schedule: Q04DX003 (ip), vehicle: Klucel (hydroxypropylcellulose) (HPC)”, the T/C is 139 % of control. The survivor count (T/C endpoint: mean survival time, dose: 600.0 mg/kg/injection, schedule: Q01DX009 (ip), vehicle: other) is 5 of 5.
Consider `C#CC(C)OCC1CO1` (stereo not drawn), for which the survivor count (T/C endpoint: mean survival time, dose: 400.0 mg/kg/injection, schedule: Q04DX003 (ip), vehicle: saline sonified) was 1 of 6.
With `CCOC(=O)Nc1cc(NC(C)CCCN(CC)CC)c2ncc(-c3ccc(Cl)c(Cl)c3)nc2n1` (stereo not drawn) (tested in a mixture with another compound), the survivor count runs as follows: (T/C endpoint: mean survival time, dose: 200.0 mg/kg/injection, schedule: Q01DX001 (ip), vehicle: saline) 0 of 6; (T/C endpoint: mean survival time, dose: 400.0 mg/kg/injection, schedule: Q01DX001 (ip), vehicle: saline) 0 of 6.
In the case of `CC(C)C(=O)[O][Pb]([CH3])([CH3])[CH3]`, the survivor count runs as follows: (T/C endpoint: mean survival time, dose: 25.0 mg/kg/injection, schedule: Q04DX002 (ip), vehicle: saline) 2 of 3; (T/C endpoint: mean survival time, dose: 50.0 mg/kg/injection, schedule: Q04DX002 (ip), vehicle: saline) 0 of 3; under setting [3], 0 of 3; under setting [4], 0 of 3; under setting [5], 0 of 3.
Consider `O=C(CC(O)(C(F)(F)Cl)C(F)(F)Cl)c1cccc([N+](=O)[O-])c1`, for which the survivor count (T/C endpoint: mean survival time, dose: 400.0 mg/kg/injection, schedule: Q01DX009 (ip), vehicle: saline with Tween-80) is 1 of 6.
Consider `CCOC(=O)N1CCc2nc3ccccc3cc21`, for which, under setting [9], the survivor count is given as 6 of 6.
For `CCC(O)CNC1CCCCC1` (stereo not drawn), for the setting “T/C endpoint: mean survival time, dose: 300.0 mg/kg/injection, schedule: Q01DX001 (ip), vehicle: saline”, the survivor count was 2 of 6.
For the molecule `CCOC(=O)Nc1cc([N+](C)(C)C)ccc1OCCOc1ccc([N+](C)(C)C)cc1`, the survivor count reads like this: (T/C endpoint: mean survival time, dose: 100.0 mg/kg/injection, schedule: Q04DX003 (ip), vehicle: Klucel (hydroxypropylcellulose) (HPC)) 0 of 6; (T/C endpoint: mean survival time, dose: 200.0 mg/kg/injection, schedule: Q04DX003 (ip), vehicle: Klucel (hydroxypropylcellulose) (HPC)) 0 of 6; under setting [10], 0 of 6.
Turning to `O=C(Nc1ccccc1)Oc1c(Cl)cc(Cl)c(Cl)c1[N+](=O)[O-]`, the survivor count under setting [6] is recorded as 2 of 6, the survivor count under setting [7] was 2 of 6 and the survivor count under setting [8] is 0 of 6.
Regarding `CN(C)c1ccc([N+](=O)[O-])cn1`, the survivor count (T/C endpoint: mean survival time, dose: 400.0 mg/kg/injection, schedule: Q04DX002 (ip), vehicle: saline with Tween-80) is listed as 3 of 3.
Take `O=C(Nc1cccc(C(=O)O)c1)Nc1cccc(C(F)(F)F)c1`: the survivor count under setting [8] is given as 0 of 6.
As to `Cc1ccc(Nc2c3ccccc3nc3ccccc23)c(C)c1`, the survivor count under setting [10] was 0 of 6.
With `Cn1c(=O)cc(CCl)c2ccccc21`, the survivor count is recorded as 0 of 4 under setting [1] and 0 of 4 under setting [2].
